Test results from patent publication US20100280231A1, “WHITENING AGENT COMPRISING EQUOL OR ITS SACCHARIDE DERIVATIVE AS AN EFFECTIVE INGREDIENT” (priority 2007, published 2010).
Some entries share one result that the patent states for a list of compounds.

System: mouse 3T3-L1 cells differentiated into mature cells
Experiment: Test for lipid hydrolysis (glycerol release from mature lipocytes)
Assay type: cell-based
Details: Table 3, compared to control
Description: After the culture supernatant of mouse 3T3-L1 cells cultured under the same condition described above was removed, a regular medium containing 5 μg/ml insulin, 0.25 μM dexamethasone and 0.5 mM 3-isobutyl-1-methylxanthin was added by 1 ml/well, and then the cells were cultured for two days to differentiate into mature cells. After the supernatant was removed, the cells were washed with D-PBS three times and cultured with regular medium for 12 days while replacing the medium every two or three days by 1 ml/well. After the supernatant was removed and the cells were washed with D-PBS two times, a solution containing equol or equol glycosides diluted with D-MEM containing 1% bovine serum albumin to give the concentration described in Table 4 was added by 0.25 ml/well, and then the cell was cultured for 6 hours. After the supernatant was collected, the amount of glycerol was measured to determine the amount of the degraded lipid. […] The amount of protein of the sonicated cells was measured by Bradford method as in Experiment 3, and the amount of glycerol per cell protein representing degree of lipid degradation was shown in Table 3. The amount of glycerol was measured with “GLYCEROL REGENT A” (glycerol measurement kit commercialized by Zen-Bio, Inc.).

| SMILES | Concentration enhancing degradation of triglyceride accumulated in lipocyte [µM] |
| --- | --- |
| OCC1O[C@H](Oc2ccc([C@H]3COc4cc(O)ccc4C3)cc2)[C@@H](O)C(O)[C@@H]1O (stereo partly drawn) [4′-O-α-D-glucopyranosyl-S-equol] | ≥ 20 |
| OCC1O[C@H](Oc2ccc3c(c2)OC[C@H](c2ccc(O)cc2)C3)[C@@H](O)C(O)[C@@H]1O (stereo partly drawn) [7-O-α-D-glucopyranosyl-S-equol] | ≥ 20 |
